# Results as given in publication doi:10.1101/681833.
# These are yes or no findings as the source states them, for the method shown. In cells and extracts the contact can be indirect. Some entries that bind do so weakly or less than the wild type.
# Molecular target: T1, malin (co-expressed in cells) (UniProt Q6VVB1)
# T1 sequence: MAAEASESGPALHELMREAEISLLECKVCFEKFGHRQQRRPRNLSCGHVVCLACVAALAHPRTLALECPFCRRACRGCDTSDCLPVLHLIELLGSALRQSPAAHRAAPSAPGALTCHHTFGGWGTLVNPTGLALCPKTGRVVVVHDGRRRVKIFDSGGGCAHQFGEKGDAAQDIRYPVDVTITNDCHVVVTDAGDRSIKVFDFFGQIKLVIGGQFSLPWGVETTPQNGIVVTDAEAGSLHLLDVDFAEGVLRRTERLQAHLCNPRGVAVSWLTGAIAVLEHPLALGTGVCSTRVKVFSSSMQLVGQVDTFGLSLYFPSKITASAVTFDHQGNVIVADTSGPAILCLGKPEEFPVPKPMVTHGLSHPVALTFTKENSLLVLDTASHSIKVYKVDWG
# Experiment: co-IP
binder,measurement,value
"glycogen phosphorylase brain isoform (co-expressed in cells) (enzyme, UniProt P11216 1-843) MAKPLTDSEKRKQISVRGLAGLGDVAEVRKSFNRHLHFTLVKDRNVATPRDYFFALAHTVRDHLVGRWIRTQQHYYERDPKRIYYLSLEFYMGRTLQNTMVNLGLQNACDEAIYQLGLDLEELEEIEEDAGLGNGGLGRLAACFLDSMATLGLAAYGYGIRYEFGIFNQKIVNGWQVEEADDWLRYGNPWEKARPEYMLPVHFYGRVEHTPDGVKWLDTQVVLAMPYDTPVPGYKNNTVNTMRLWSAKAPNDFKLQDFNVGDYIEAVLDRNLAENISRVLYPNDNFFEGKELRLKQEYFVVAATLQDIIRRFKSSKFGCRDPVRTCFETFPDKVAIQLNDTHPALSIPELMRILVDVEKVDWDKAWEITKKTCAYTNHTVLPEALERWPVSMFEKLLPRHLEIIYAINQRHLDHVAALFPGDVDRLRRMSVIEEGDCKRINMAHLCVIGSHAVNGVARIHSEIVKQSVFKDFYELEPEKFQNKTNGITPRRWLLLCNPGLADTIVEKIGEEFLTDLSQLKKLLPLVSDEVFIRDVAKVKQENKLKFSAFLEKEYKVKINPSSMFDVHVKRIHEYKRQLLNCLHVVTLYNRIKRDPAKAFVPRTVMIGGKAAPGYHMAKLIIKLVTSIGDVVNHDPVVGDRLKVIFLENYRVSLAEKVIPAADLSQQISTAGTEASGTGNMKFMLNGALTIGTMDGANVEMAEEAGAENLFIFGLRVEDVEALDRKGYNAREYYDHLPELKQAVDQISSGFFSPKEPDCFKDIVNMLMHHDRFKVFADYEAYMQCQAQVDQLYRNPKEWTKKVIRNIACSGKFSSDRTITEYAREIWGVEPSDLQIPPPNIPRD",binding,binds
